Source: article PMC7352346, “Erdafitinib Resensitizes ABCB1-Overexpressing Multidrug-Resistant Cancer Cells to Cytotoxic Anticancer Drugs” (Cancers, 2020)

The chains behind the UniProt entries cited, without tags or fusion partners.
UniProt P08183, whole entry: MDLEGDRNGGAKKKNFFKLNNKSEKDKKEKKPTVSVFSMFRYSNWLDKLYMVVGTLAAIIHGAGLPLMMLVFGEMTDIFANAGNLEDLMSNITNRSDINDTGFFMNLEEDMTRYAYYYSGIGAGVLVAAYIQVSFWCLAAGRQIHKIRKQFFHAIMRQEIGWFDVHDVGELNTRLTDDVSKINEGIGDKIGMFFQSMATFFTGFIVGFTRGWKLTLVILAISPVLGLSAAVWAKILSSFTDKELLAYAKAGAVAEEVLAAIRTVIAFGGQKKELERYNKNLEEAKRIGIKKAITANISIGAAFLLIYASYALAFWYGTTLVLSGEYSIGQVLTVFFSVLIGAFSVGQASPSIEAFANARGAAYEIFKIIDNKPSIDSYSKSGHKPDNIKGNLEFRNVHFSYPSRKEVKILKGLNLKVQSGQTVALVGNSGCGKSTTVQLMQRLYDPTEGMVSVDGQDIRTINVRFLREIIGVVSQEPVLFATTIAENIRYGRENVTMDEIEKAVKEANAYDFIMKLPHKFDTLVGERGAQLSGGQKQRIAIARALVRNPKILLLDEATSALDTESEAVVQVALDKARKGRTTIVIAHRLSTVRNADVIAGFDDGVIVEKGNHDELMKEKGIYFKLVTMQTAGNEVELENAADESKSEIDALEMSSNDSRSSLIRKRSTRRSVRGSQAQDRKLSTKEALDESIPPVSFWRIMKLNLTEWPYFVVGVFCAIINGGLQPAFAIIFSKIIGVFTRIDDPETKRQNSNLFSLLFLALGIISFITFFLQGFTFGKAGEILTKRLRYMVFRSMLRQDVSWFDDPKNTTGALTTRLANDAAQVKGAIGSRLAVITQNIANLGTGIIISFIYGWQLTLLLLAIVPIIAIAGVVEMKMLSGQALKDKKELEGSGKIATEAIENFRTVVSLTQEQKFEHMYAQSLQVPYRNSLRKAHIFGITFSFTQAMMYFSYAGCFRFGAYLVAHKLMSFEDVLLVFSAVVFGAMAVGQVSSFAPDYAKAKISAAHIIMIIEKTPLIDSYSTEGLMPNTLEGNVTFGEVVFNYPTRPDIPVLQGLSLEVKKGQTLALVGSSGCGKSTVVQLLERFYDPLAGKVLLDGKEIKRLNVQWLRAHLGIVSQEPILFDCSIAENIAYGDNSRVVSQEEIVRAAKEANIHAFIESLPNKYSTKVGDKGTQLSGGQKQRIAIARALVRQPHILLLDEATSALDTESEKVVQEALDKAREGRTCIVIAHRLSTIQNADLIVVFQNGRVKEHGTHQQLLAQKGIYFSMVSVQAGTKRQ

Target: ABCB1 (MDR1, P-glycoprotein) (Homo sapiens, UniProt P08183)
Experiment: biochemical

COc1cc(OC)cc(N(CCNC(C)C)c2ccc3ncc(-c4cnn(C)c4)nc3c2)c1 [erdafitinib]
EC50: ~350 nM
